## Primary screen of a compound library

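Whole-parasite assay of Trypanosoma brucei over 72 hours; the read-out is not stated. Concentration: 30 µM. The record gives no direction; compounds that gave an IC50 in retests scored well above the rest, so higher reads as stronger inhibition. Values scatter widely below zero; nearly all retest evidence comes from the higher of the two concentrations used. Of about 64,000 compounds tested this way, about 940 (1.5%) reached 50% or more in at least one test.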

The filed quantity is “Percent Effect” (%).
How 0% and 100% were set is not recorded. Most values in the screen are low, and negative values occur.
Compounds were drawn at random from those tested, without regard to their results.

* [H][C@@]12C[C@@H](c3nc(C)no3)CN(S(=O)(=O)c3ccccc3)[C@]1([H])CCO2 : -19.94%
* Cc1ccc2nc(CNc3ccccc3C(=O)NC3CC3)cn2c1 : -2.061%
* Cc1c(C(=O)NC2CCCC2)nnn1-c1ccccc1 : -88.34%
* CCn1ccnc1CN1CCN(c2ncnc3ccsc23)CC1C (centres undefined) : 22.9%
* Cc1cc(C)n(C2CN(CCC(N)=O)C2)n1 : 0.5662%
* CCOC(=O)c1coc(N2CCC(C(C)N3CCCC3)CC2)n1 (centres undefined) : -2.176%
* CN1CCCCc2c1nc1c(c2N)CCCC1 : 32.64%
* [H][C@]12CC[C@]([H])(CN(Cc3ccccn3)C1)N(C(=O)c1cc(C3CC3)no1)C2 : -2.905%
* Cc1nc2c(c(N3CCN(c4ncccc4C(N)=O)CC3)n1)CCNC2 : 7.941%
* Cc1nn(C)c(C)c1NC(=O)CNc1cccc(CC(F)(F)F)c1 : -6.437%
* CCc1ocnc1C(=O)Nc1ccc2ccn(CCN(C)C)c2c1 : -14.33%
* CCN(CC)C(=O)Cn1cc(-c2nc(-c3ccccc3C)no2)nn1 : -52.51%
* Cc1nc(CCNC(=O)NC2CCCc3c2cnn3CCO)cs1 (centres undefined) : 32.56%
* Cc1ccc2oc(SCC(=O)NC(C)(C)C)nc2n1 : -31.69%
* Cc1c[nH]c(CN2CCOC(c3ccc(Cl)c(Cl)c3)C2)c(C)c1=O (centres undefined) : -47.78%
* CS(=O)(=O)N1CCOCC12CCN(Cc1ccoc1)CC2 : -48.53%
* O=C(CN1CCCCC1Cn1cncn1)NCCc1ccc(F)cc1 (centres undefined) : -58.4%
* CCOC(C)c1nc(CN2CCN(c3nccc(C)n3)CC2)cs1 (centres undefined) : -1.428%
* O=C(CCc1cccnc1)Nc1ccc(OCC2CCOCC2)cc1 : -138.8%
* COc1ccc(OC)c(CNCc2ccnc(N3CCOCC3)c2)c1 : -7.453%
* COCC1CN(S(=O)(=O)c2cccs2)Cc2ncnn2C1 (centres undefined) : -16.65%
* O=C(O)c1ccccc1-c1c(-c2ccccc2)ncn1CC1CCCO1 (centres undefined) : -42.19%
* [H][C@@]12CCN(C(=O)c3ccccc3)[C@]1([H])C(=O)N(Cc1ccccc1)C(=O)N2 : -13.36%
* CN(C)Cc1cccc(-c2cccnc2C(=O)NCc2ccccn2)c1 : -18.63%
* COCCN(Cc1cccc(O)c1)CC1CC1 : -30.7%
* CCOc1ccc(CNCCCn2ccnc2)cc1Br : 8.338%
* O=C(c1cnc(NCCC2CCCO2)c(Cl)c1)N1CCOCC1 (centres undefined) : -32.32%
* O=C(O)C(F)(F)F.[H][C@@]12CCC(=O)N(c3ccccc3)[C@]1([H])CCN2Cc1cnn(C)c1 : -6.425%
* CCOCCCOC(=O)c1ccc2c(c1)[nH]c(=O)n2C : -11.82%
* Cc1cn2nc(N3CCn4c(nnc4C(C)C)C3)sc2n1 : -48.6%
* CN(C)c1ccc(C(=O)N2CCCN(Cc3cnn(C)c3)CC2)nn1 : -1.257%
* OC1CCN(Cc2ccc(CNc3ncc(Cl)cc3F)cc2)CC1 : -7.304%
* CC(C)OCCCNC(=O)CC1(Cn2cnnn2)CCCCC1 : -19.66%
* CNC(=O)C1CN(C(=O)c2ccccc2)Cc2cn(C)nc21 (centres undefined) : -16.32%
* CNC(=O)COc1ccc(CNCc2cc(F)ccc2F)cc1 : -2.647%
* COc1cc(NCc2c(C)noc2C)c(OC)cc1Cl : -33.61%
* COC(=O)c1ccc(OC)c(Cn2cc(N)cn2)c1 : 3.323%
* Clc1ccc2nncc(N3CCCCC3)c2c1 : 9.035%
* O=C(COc1coc(CN2CCCCC2)cc1=O)c1ccccc1 : -45.52%
* COc1ccc(C2=C(C)C(N3CCc4ccccc4C3)=NS2(=O)=O)cc1 : -9.792%
* Cc1nc(O)cc(C2CCN(C(=O)C(C)Cn3nc(C)nc3C)CC2)n1 (centres undefined) : -2.171%
* CN1CC(NC(=O)Nc2cnn(-c3ccccc3Cl)c2)CCC1=O (centres undefined) : -21.17%
* c1ccc(CN2CCC(CNc3ncnc4c3CCNCC4)CC2)cc1 : 8.903%
* CCc1cccc(C)c1NC(=O)NCCCN(CC)S(C)(=O)=O : -13.03%

Once more, the final 3:

* CN1CC(NC(=O)Nc2cnn(-c3ccccc3Cl)c2)CCC1=O (centres undefined) : -21.17%
* c1ccc(CN2CCC(CNc3ncnc4c3CCNCC4)CC2)cc1 : 8.903%
* CCc1cccc(C)c1NC(=O)NCCCN(CC)S(C)(=O)=O : -13.03%

The values are deposited in ChEMBL (CHEMBL3988442, “University of Dundee, Small-Polar-MMV Screening Library” (2021)).